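Light output from a luciferase reaction measures the fall in cellular ATP in a human lymphoblastoid line after one day of treatment, showing cell killing.
Compounds were tested as a dilution series spanning 0.59 nM up to 92 µM.
The number is the fitted AC50 potency for loss of viability; a lower value means stronger cytotoxic potency.
Each dose curve gets a class and a score scaled by its fitted AC50; scores of 40–100 are called active, 1–39 inconclusive, and 0 inactive.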

Values are in µM.
All entries here are filed as inconclusive.
Only part of the assay is shown, chiefly results filed as inconclusive.
Potencies fitted to partial, single-point or poorly fitting curves are rough.
Some entries filed as inconclusive have a full curve.
Activity scores are not listed here.
An entry listed twice with the same setting is a separate test.

structure | Potency (µM) | curve
C[C@@H]1C[C@@H]([C@H](O)CC2CC(=O)NC(=O)C2)C(=O)[C@@H](C)C1 | 0.5012 | cytotoxic, full curve
COc1cccc2c1C(=O)c1c(O)c3c(c(O)c1C2=O)C[C@@](O)(C(C)=O)C[C@@H]3O[C@H]1C[C@H](N)[C@H](O)[C@H](C)O1 | 0.2512 | cytotoxic, full curve, poor fit
CC(C)(C)c1cc(O)ccc1O | 79.43 | cytotoxic, partial curve, poor fit
COC(=O)[C@H]1[C@H]2C[C@@H]3c4[nH]c5cc(OC)ccc5c4CCN3C[C@H]2C[C@@H](OC(=O)c2cc(OC)c(OC)c(OC)c2)[C@@H]1OC | 79.43 | cytotoxic, single point
O.O.O.O.O.O.O.O=S(=O)([O-])[O-].[Co+2] | 39.81 | cytotoxic, partial curve, poor fit
C[C@H](CCC(=O)O)[C@H]1CC[C@H]2[C@@H]3CC[C@@H]4C[C@H](O)CC[C@]4(C)[C@H]3C[C@H](O)[C@]12C | 39.81 | cytotoxic, single point
C[C@@H]1C[C@@H]([C@H](O)CC2CC(=O)NC(=O)C2)C(=O)[C@@H](C)C1 | 1 | cytotoxic, full curve
CC(C)(C)c1cc(O)ccc1O | 39.81 | cytotoxic, partial curve, poor fit
Oc1ccccc1O | 39.81 | cytotoxic, partial curve, poor fit
CC(C)(C)NC(=O)[C@@H]1C[C@@H]2CCCC[C@@H]2CN1C[C@@H](O)[C@H](Cc1ccccc1)NC(=O)[C@H](CC(N)=O)NC(=O)c1ccc2ccccc2n1 | 79.43 | cytotoxic, single point
COP(=O)(OC)OC=C(Cl)Cl | 25.12 | cytotoxic, partial curve
C(=NC1CCCCC1)=NC1CCCCC1 | 50.12 | cytotoxic, partial curve, poor fit
C[C@]12C/C(=C/O)C(=O)C[C@@H]1CC[C@@H]1[C@@H]2CC[C@@]2(C)[C@H]1CC[C@]2(C)O | 50.12 | cytotoxic, partial curve, poor fit
Oc1c(Cl)cc(Cl)c(Cl)c1Cc1c(O)c(Cl)cc(Cl)c1Cl | 19.95 | cytotoxic, full curve
Cc1c2oc3c(C)ccc(C(=O)N[C@@H]4C(=O)N[C@H](C(C)C)C(=O)N5CCC[C@H]5C(=O)N(C)CC(=O)N(C)[C@@H](C(C)C)C(=O)O[C@@H]4C)c3nc-2c(C(=O)N[C@@H]2C(=O)N[C@H](C(C)C)C(=O)N3CCC[C@H]3C(=O)N(C)CC(=O)N(C)[C@@H](C(C)C)C(=O)O[C@@H]2C)c(N)c1=O | 0.0025 | cytotoxic, full curve, poor fit
COC(=O)C1=C(C)NC(C)=C(C(=O)OC)C1c1ccccc1[N+](=O)[O-] | 79.43 | cytotoxic, single point
COc1cc2c(c(OC)c1OC)-c1ccc(OC)c(=O)cc1[C@@H](NC(C)=O)CC2 | 0.0794 | cytotoxic, full curve, poor fit
ClC1=C(Cl)C2(Cl)C3C4C=CC(C4)C3C1(Cl)C2(Cl)Cl (stereo not shown) | 50.12 | cytotoxic, partial curve, poor fit
CC(=O)Oc1ccccc1C(=O)Nc1ncc([N+](=O)[O-])s1 | 39.81 | cytotoxic, partial curve
CC(=O)[O-].CC(=O)[O-].O.O.[Cd+2] | 79.43 | cytotoxic, single point
O=[N+]([O-])c1ccc(CCO)cc1 | 31.62 | cytotoxic, full curve, poor fit
ClC1=C(Cl)C2(Cl)C3C4CC(C5OC45)C3C1(Cl)C2(Cl)Cl (stereo not shown) | 39.81 | cytotoxic, partial curve, poor fit
C=C(CC)C(=O)c1ccc(OCC(=O)O)c(Cl)c1Cl | 50.12 | cytotoxic, partial curve, poor fit
Cc1c(C(=O)O)c(O)cc2c1C(=O)c1c(O)c([C@H]3O[C@H](CO)[C@@H](O)[C@H](O)[C@H]3O)c(O)c(O)c1C2=O | 39.81 | cytotoxic, partial curve
C=Cc1ccccc1 | 79.43 | cytotoxic, single point
COc1cc2c(c(OC)c1OC)-c1ccc(OC)c(=O)cc1[C@@H](NC(C)=O)CC2 | 0.0631 | cytotoxic, full curve, poor fit
CC1=C(/C=C/C(C)=C/C=C/C(C)=C/CO)C(C)(C)CCC1 | 79.43 | cytotoxic, single point
Clc1ccc(COC(Cn2ccnc2)c2ccc(Cl)cc2Cl)cc1 (stereo not shown) | 79.43 | cytotoxic, partial curve, poor fit
O=C(O)CCCc1ccc(N(CCCl)CCCl)cc1 | 50.12 | cytotoxic, partial curve, poor fit
CC/C=C\C/C=C\C/C=C\CCCCCCCC(=O)O | 50.12 | cytotoxic, partial curve, poor fit
CC(=O)OC/C=C(C)/C=C/C=C(C)/C=C/C1=C(C)CCCC1(C)C | 50.12 | cytotoxic, partial curve, poor fit
CC(=O)O[C@]1(C(C)=O)CC[C@H]2[C@@H]3C[C@H](C)C4=CC(=O)CC[C@]4(C)[C@H]3CC[C@@]21C | 50.12 | cytotoxic, partial curve
Oc1ccc(Cl)cc1Sc1cc(Cl)ccc1O | 39.81 | cytotoxic, full curve
CC(COc1ccccc1)N(CCCl)Cc1ccccc1 (stereo not shown) | 50.12 | cytotoxic, partial curve, poor fit
C=C(Cl)CSC(=S)N(CC)CC | 79.43 | cytotoxic, single point
CC(C)COC(=O)c1ccccc1C(=O)OCC(C)C | 79.43 | cytotoxic, single point
Nc1ccc(S(=O)(=O)Nc2nccs2)cc1 | 79.43 | cytotoxic, single point
C[C@H]1O[C@@H](O[C@H]2[C@@H](O)C[C@H](O[C@H]3[C@@H](O)C[C@H](O[C@H]4CC[C@@]5(C)[C@H](CC[C@@H]6[C@@H]5C[C@@H](O)[C@]5(C)[C@@H](C7=CC(=O)OC7)CC[C@]65O)C4)O[C@@H]3C)O[C@@H]2C)C[C@H](O)[C@@H]1O | 0.1585 | cytotoxic, full curve, poor fit
O=[N+]([O-])/C=C/c1ccccc1 | 79.43 | cytotoxic, single point
BrCC(Br)(Br)Br | 15.85 | cytotoxic, full curve
N=C(N)c1ccc(OCCCCCOc2ccc(C(=N)N)cc2)cc1 | 39.81 | cytotoxic, partial curve, poor fit
O=C1C2(Cl)C3(Cl)C4(Cl)C(Cl)(Cl)C5(Cl)C3(Cl)C1(Cl)C5(Cl)C24Cl (stereo not shown) | 50.12 | cytotoxic, partial curve, poor fit
CCc1cccc(CC)c1N(COC)C(=O)CCl | 39.81 | cytotoxic, partial curve, poor fit
COc1cc(/C=C/C(=O)CC(=O)/C=C/c2ccc(O)c(OC)c2)ccc1O | 39.81 | cytotoxic, partial curve, poor fit
C=CC(=O)OCCO | 79.43 | cytotoxic, partial curve, poor fit
COc1ccc2[nH]cc(CCNC(C)=O)c2c1 | 79.43 | cytotoxic, partial curve, poor fit
CN(C)c1ccc(N)cc1 | 50.12 | cytotoxic, partial curve, poor fit
NC(=O)c1ncn([C@@H]2O[C@H](CO)[C@@H](O)[C@H]2O)n1 | 79.43 | cytotoxic, single point

The last 3 entries again:

{"structure": "COc1ccc2[nH]cc(CCNC(C)=O)c2c1", "Potency (µM)": "79.43", "curve": "cytotoxic, partial curve, poor fit"}
{"structure": "CN(C)c1ccc(N)cc1", "Potency (µM)": "50.12", "curve": "cytotoxic, partial curve, poor fit"}
{"structure": "NC(=O)c1ncn([C@@H]2O[C@H](CO)[C@@H](O)[C@H]2O)n1", "Potency (µM)": "79.43", "curve": "cytotoxic, single point"}

From PubChem BioAssay record AID983 (NCATS, 2007).